{"source": "paper PMC4145801", "key": {"[1]": {"target": "centromeric protein A (CENP-A), centromeric histone H3 variant (human (endogenous in HeLa)) (UniProt P49450)", "test": "co-IP; chromatin from non-synchronized HeLa cells after 2 min MNase digestion (long arrays rich in tri-, tetra- and penta-nucleosomes), extracted overnight at 4°C in low-salt buffer (0.5x PBS, 5 mM EGTA); IP with antibody against CENP-A, CENP-C or RNAPII^S2P and protein A/G Plus agarose beads; partners detected on Western blots; mock IP without antibody as control"}, "[2]": {"target": "inner kinetochore protein CENP-C (human (endogenous in HeLa)) (UniProt Q03188)", "test": "co-IP; chromatin from non-synchronized HeLa cells after 2 min MNase digestion (long arrays rich in tri-, tetra- and penta-nucleosomes), extracted overnight at 4°C in low-salt buffer (0.5x PBS, 5 mM EGTA); IP with antibody against CENP-A, CENP-C or RNAPII^S2P and protein A/G Plus agarose beads; partners detected on Western blots; mock IP without antibody as control"}}, "note": "Results are given in words; binding and its absence hold for the method and conditions named. In cells and extracts the contact can be indirect. Some binding calls cover weakened binding; strength is not graded here."}
{"substance": "TATA-box binding protein (TBP) (from UniProt P20226 1-339)", "values": [{"measurement": "binding", "setting": "[1]", "value": "binds"}, {"measurement": "binding", "setting": "[2]", "value": "binds"}]}
